Patent publication EP4755914A1
Residue numbers refer to the chain shown, from its start. Results are given in words; binding and its absence hold for the method and conditions named. Some entries that bind do so weakly or less than the wild type.

By UniProt entry, the sequences of proteins in these tests, tags left out. Residues count along the entry.
ROR1 antigen (Q01973, residues 30-403): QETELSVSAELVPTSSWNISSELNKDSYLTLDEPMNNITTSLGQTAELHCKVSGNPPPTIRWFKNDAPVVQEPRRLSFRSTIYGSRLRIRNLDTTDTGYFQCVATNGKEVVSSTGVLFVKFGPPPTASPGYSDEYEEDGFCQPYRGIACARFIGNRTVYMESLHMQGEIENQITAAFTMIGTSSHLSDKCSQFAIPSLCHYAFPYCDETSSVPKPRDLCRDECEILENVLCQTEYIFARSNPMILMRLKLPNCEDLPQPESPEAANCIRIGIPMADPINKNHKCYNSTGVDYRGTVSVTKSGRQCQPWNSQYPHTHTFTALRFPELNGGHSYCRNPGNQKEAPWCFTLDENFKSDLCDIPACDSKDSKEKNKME
ROR1 protein (ACROBiosystems, Cat# RO1-H5223) (Q01973, residues 308-395): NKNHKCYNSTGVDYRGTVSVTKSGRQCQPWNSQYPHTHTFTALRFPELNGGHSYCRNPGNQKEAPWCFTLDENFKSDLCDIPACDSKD

B1: murine antibody 17-F12-G8-A6 (antibody, V domains shown)
VH: EVTLKESGPGILQPSQTLSLTCSFSGFSLSTSGMGVAWIRQPSGKGLEWLAHIWWDDDKRYNPALKSRLTISKDTSSNQVFLKIASVDTADTATYYCARPQFITTVVAFYWYFDVWGAGTTVTVSS
VL: DILLTQSPASLSVSMGETVTITCRASENIYSNLAWYQQKQGKSPQLLVYAATNLADGVPSRFSGSGSGTQYSLKINSLQSEDFGSYYCQHFWGTPWTFGGGTKLEIK
B2: humanized antibody hu17-H2L1 (antibody, human IgG1, kappa, L234A L235A, V domains shown)
VH: EVTLKESGPTLVKPTQTLTLTCSFSGFSLSTSGMGVAWIRQPPGKALEWLAHIWWDDDKRYNPALKSRLTITKDTSKNQVVLTITNVDPVDTATYYCARPQFITTVVAFYWYFDVWGQGTTVTVSS
VL: DILLTQSPSSLSVSVGDRVTITCRASENIYSNLAWYQQKPGKAPKLLVYAATNLADGVPSRFSGSGSGTQYTLTISSLQPEDFATYYCQHFWGTPWTFGGGTKLEIKR
B3: humanized antibody hu17-H4L1 (antibody, human IgG1, kappa, L234A L235A, V domains shown)
VH: B2 VH with E1Q, S23T, N62G, A64S, I84M, V87M
VL: B2 VL
B4: humanized antibody hu17-H3L1 (antibody, human IgG1, kappa, L234A L235A, V domains shown)
VH: B2 VH with E1Q, A64S, I84M, V87M
VL: B2 VL

What follows are binders tested against ROR1 antigen (UniProt Q01973) (assay: BLI).

binding, binds:
B1, B2, B3, B4

What follows are binders tested against ROR1 protein (ACROBiosystems, Cat# RO1-H5223) (UniProt Q01973) (assay: ELISA).

binding, binds:
B2, B3, B4
